Reference: patent US20130039855

By UniProt entry, the sequences of proteins in these tests, tags left out. Residues count along the entry.
UniProt P09038, 135-288: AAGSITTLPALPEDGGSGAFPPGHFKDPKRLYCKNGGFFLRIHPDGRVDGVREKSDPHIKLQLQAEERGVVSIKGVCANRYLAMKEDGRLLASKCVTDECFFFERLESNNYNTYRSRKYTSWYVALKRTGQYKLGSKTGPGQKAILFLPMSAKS

Biological target: FGF2 (Homo sapiens) (UniProt P09038)
Experiment: activity in cells
Conditions: 2'-F all pyrimidines, purified recombinant protein, protein details: Peprotech
[1] = strong inhibition of FRS2/ERK phosphorylation in NIH3T3, FGF2 50 ng/ml
[2] = NIH3T3 FRS2/ERK phosphorylation, inhibition per figure legend, not listed among strong inhibitors, dose not given here

| Sequence | functional effect of the aptamer [1] | further results |
| --- | --- | --- |
| GGGCUUGUUCUGGAUCGCAUCAGUACUAGGGCUCUUAGGAGUGACCAGUGUGUUGUAAGGCGAUGCUCAGAAGCGGAG [Apt11] | active | – |
| GGGCUUGUUCUGGAUCGCCGUUAAAUGUCUAGUAGUACUAUUCAUGUUUACGGAUUGCGGCGAUGCUCAGAAGCGGAG [Apt1] | – | functional effect of the aptamer [2]: active |
| GGGCUUGUUCUGGAUCGCCUGAUAAGCAGGAGGGUGACGGUGAUGGCAGCUGUUUGGGGGCGAUGCUCAGAAGCGGAG [Apt7] | active | – |
| GGGCUUGUUCUGGAUCGCCUUACGAUUAGAGGAUAUUAUAUUUACUCGAUUGUUGGGGCGAUGCUCAGAAGCGGAG [Apt6] | – | functional effect of the aptamer [2]: active |
| GGGCUUGUUCUGGAUCGCGAUGCAAGUUACCAGUGUAGCUAGUUACUAGGGCGUGUGUUGGCGAUGCUCAGAAGCGGAG [Apt9] | active | – |
| GGGCUUGUUCUGGAUCGCUCGUUGACUAGGGCGUACAUCGUGACCAGUGUCAGUUCAGGGCGAUGCUCAGAAGCGGAG [Apt10] | active | – |
| GGGGCAAGUUACCAGUGUAGCUAGUUACUAGGGCGUGUCCC [Apt36 (shortened Apt9)] | – | functional effect of the aptamer (strong inhibition of FRS2/ERK phosphorylation in NIH3T3, variant of Apt9, dose not given here): active |
| GGGUACUAGGGCUCUUAGGAGUGACCAGUGUGCCC [Apt38 (shortened Apt11)] | – | functional effect of the aptamer (strong inhibition of FRS2/ERK phosphorylation in NIH3T3, variant of Apt11, dose not given here): active |
